About 170 (0.05%) of roughly 340,000 compounds were called active. Inconclusive means that the source gave no clear call. Such entries were picked first, then a sample of the others. Calls come from the whole dose curve; as a rule, active = well fitted inhibition curve with a large enough effect in the signal ratio, with a control signal flat (not every such curve was filed as active); inconclusive = small, poorly fitted or top-dose-only effect, or effect the other way, or a change in a side signal; inactive = flat fitted curve, though single readings scatter; the % refers to the signal ratio. Potencies of inconclusive entries are doubtful fits and often do not repeat.
assay: qHTS Assay to Find Inhibitors of Chronic Active B-Cell Receptor Signaling; settings: ABC-DLBCL IkBa-CBG/CBR reporter, luminescence ratio (green luciferase fused to IkBa over red control in TMD8 lymphoma cells), 4 h; activity change, negative = inhibition: at 46.1 µM (top of the series);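 for activity change, negative = inhibition: plate controls were basal doxycycline-induced cells for no effect and cells given 10 µM MG132 for full effect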
In short: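 TMD8 ABC-DLBCL cells carrying doxycycline-inducible green luciferase fused to IkappaBalpha plus unfused red luciferase were exposed to compounds (up to 46 uM) for 4 hrs at 37C. Activity came from the overlap-corrected green/red luminescence ratio.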
Potency is the fitted concentration of half-maximal effect.

| SMILES | Potency | activity change, negative = inhibition |
| --- | --- | --- |
| CC(C)(C)NC(=S)NNC(=O)c1cccc(Br)c1 | inconclusive: 3.55 µM [falling, partial curve, poor fit] |  |
| Cc1ccc(-c2nc3cc(NC(=O)C(C)C)ccc3o2)cc1 |  | inconclusive: 5.3% |
| COc1ccc(CCN(C)Cc2ccc(C(=O)Nc3ccccc3)cc2)cc1OC | inconclusive: 20 µM [falling, partial curve] |  |
| O=C(/C=C/c1ccccc1Cl)NCc1cccs1 |  | inactive |
| CCn1ncc([N+](=O)[O-])c1C(=O)n1nc(C)cc1C |  | inconclusive: -4.29% |
| Oc1ccc(O)c(/C(=N/Nc2ccccc2)c2ccccc2)c1 |  | inactive |
| Clc1ccccc1Nc1c2c(nc3ncnn13)CCC2 |  | inconclusive: -10.7% |
| Cc1ccc2[nH]c3c(c2c1)CCNC3=O |  | inconclusive: -20.4% |
| Cc1ccc(N2C(=O)C3C4C=CC(CC4)C3C2=O)cc1Br (stereo unspecified) |  | inconclusive: -0.406% |
| Cc1ccc(NC(=O)N(Cc2cccs2)Cc2cc3cc4c(cc3[nH]c2=O)OCO4)cc1 | inconclusive: 29.1 µM [rising, single point] |  |
| O=C(NN=Cc1ccc(F)cc1)c1ccccc1NS(=O)(=O)c1cccs1 |  | inactive |
| O=C(Cn1cnc2ccc(Cl)cc2c1=O)c1cccs1 | inconclusive: 12.6 µM [falling, partial curve, poor fit] |  |
| CC(=O)C1=C(O)C(=O)N(CCCN2CCOCC2)C1c1ccccc1[N+](=O)[O-] (stereo unspecified) |  | inconclusive: -10.6% |
| Cc1ccc2c(C)c(C(=O)N(C)Cc3ccncn3)oc2c1C |  | inconclusive: 6.97% |
| Clc1ccc(CSc2nnc(-c3c[nH]c4ccccc34)o2)cc1 |  | inconclusive: 4.66% |
| O=C(c1ccco1)N1CCN(C(=O)c2cc(-c3ccccc3)nc3ccccc23)CC1 |  | inactive |
| CC(=O)c1ccc(Oc2cc(C)nc(NCc3ccccc3)n2)cc1 |  | inconclusive: -14.8% |
| C[C@H]1CN([C@@H](C)CO)C(=O)Cc2cc(NC(=O)CCC(F)(F)F)ccc2O[C@H]1CN(C)Cc1ccc(-c2ccccc2)cc1 |  | inconclusive: -0.693% |
| O=C(CN(c1ccccc1)S(=O)(=O)c1ccc(F)cc1)NCc1cccs1 |  | inconclusive: 6.51% |
| C=CCNC(=O)c1ccc2nccnc2c1 |  | inactive |
| OC(CN(c1ccccc1)c1ccccc1)Cn1cnc2ccccc21 (stereo unspecified) | inconclusive: 29.1 µM [falling, single point] |  |
| O=C(Nc1ccc(S(=O)(=O)Nc2ncccn2)cc1)C1=COCCO1 |  | inconclusive: 8.79% |

| SMILES | Potency | activity change, negative = inhibition |
| --- | --- | --- |
| CCOc1cccc(-c2c(C(=O)N/N=C(\C)c3cccs3)nnn2-c2nonc2N)c1 |  | inactive |
| Cc1ccccc1NC(=O)OCc1ccccc1 |  | inconclusive: -16.3% |
| CN(C)CCCN(Cc1cc2cc3c(cc2[nH]c1=O)OCO3)C(=S)Nc1cccc(Cl)c1 |  | inconclusive: -17.9% |
| CC(=O)c1ccc(NC(=O)C(C)n2nc(-c3ccccc3)c3cc(Cl)ccc32)cc1 (stereo unspecified) |  | inconclusive: 2.22% |
| CCCNC(=O)c1ccc(N2CCC3(CC2)CC(c2cccc(Br)c2)=NO3)c(NC(=O)c2c(Cl)cccc2Cl)c1 |  | inactive |
| CCOC(=O)c1cc(C#N)c(N2CCCC2)nc1-c1ccccc1 |  | inactive |
| Cc1ccc(NC(=O)C2CC(=O)N/C(=N/N=C/c3ccco3)S2)cc1 (stereo unspecified) |  | inconclusive: -120% |
| Cn1nnnc1SCc1nnc(-c2ccc(F)cc2)o1 |  | inconclusive: -14.3% |
| CC(C)CC(=O)NC(=S)Nc1nc(-c2ccccc2)cs1 |  | inconclusive: 4.95% |
| Cc1ccc2nc(N3CCN(c4ccccc4F)CC3)c(C=O)c(=O)n2c1 |  | inconclusive: 3.79% |
| Cc1cc(N2CCN(C)CC2)nc2ccc(NC(=S)N3CCC4(CC3)OCCO4)cc12 |  | inconclusive: 0.871% |
| O=C(NCc1ccc2c(c1)OCO2)c1nc(S(=O)(=O)Cc2ccccc2F)ncc1Cl |  | inconclusive: 22.2% |
| CCCCOc1ccccc1NC(=O)CC1Nc2ccccc2NC1=O (stereo unspecified) |  | inconclusive: -11.9% |
| COc1cc(NC(=O)Cn2ncc(Cl)c(Cl)c2=O)c(C)cc1[N+](=O)[O-] |  | inconclusive: 15.1% |
| O=C1c2ccccc2OC2(C=Cc3ccccc3O2)N1Cc1ccccc1 (stereo unspecified) |  | inconclusive: 19% |
| O=C(CSc1nc2nccnc2c(=O)n1Cc1cccs1)Nc1ccccc1F |  | inconclusive: -0.482% |
| Cc1ccc(-n2ccnc2SCC(=O)c2c(N)n(C3CC3)c(=O)[nH]c2=O)cc1C |  | inconclusive: 5.02% |
| COc1cc(CNC2CCCC2)cc(Cl)c1OCc1ccccc1F | inconclusive: 25.9 µM [rising, single point] |  |
| COc1ccc(-c2cc(C(=O)NCCCn3ccnc3)no2)cc1 |  | inconclusive: 55.7% |
| CCCCN1C(=O)/C(=C2/Sc3ccccc3N2C)S/C1=N\c1ncn[nH]1 | inconclusive: 0.501 µM [falling, partial curve, poor fit] |  |
| CCOc1ccc(CNC(=S)N/N=C/c2cccnc2)cc1 |  | inactive |
| CCOC(=O)N1CCN(C(=O)Cn2ccc3ccccc3c2=O)CC1 |  | inconclusive: 2.67% |

| SMILES | Potency | activity change, negative = inhibition |
| --- | --- | --- |
| O=C(NCc1ccccc1)c1ccc2c(c1)C(=O)N(Cc1ccncc1)C2=O |  | inconclusive: 0.0829% |
| O=C(OC1CCCCC1)c1ccc2c(c1)C1C=CCC1C(C(=O)O)N2 (stereo unspecified) |  | inactive |
| Cc1ccc2[nH]c(CN3CCC(CO)(CC4CCCCO4)CC3)c(C)c2c1 (stereo unspecified) |  | inconclusive: -15% |
| CC(C)Oc1ccc(C(=O)Nc2ccc(NC(=O)c3ccco3)c(Cl)c2)cc1 |  | inconclusive: 16.5% |
| COC(=O)c1c(-c2ccc(SC)cc2)sc2ccccc12 |  | inconclusive: 0.642% |
| COc1ccc(Br)cc1CN1CCCC(C(=O)N2CCCCC2)C1 (stereo unspecified) |  | inactive |
| CCOc1ccc(NC(=O)NC2CCS(=O)(=O)C2)cc1 (stereo unspecified) |  | inactive |
| CN(CC(=O)Nc1cccc(F)c1)C(=O)c1cc(-c2ccccc2)nc2ccccc12 |  | inconclusive: -19.3% |
| COc1cccc(-c2csc(NC(=O)Nc3ccccc3)n2)c1 |  | inconclusive: -24.4% |
| Cc1cccc(N=C2NC(=O)/C(=C/c3cccn3C)S2)c1 |  | inconclusive: 276% |
| Cc1ccccc1-c1nc(C#N)c(N2CCCCC2)o1 |  | inconclusive: -0.214% |
| COc1cc(C(=O)N[C@@H](C)C(=O)N2CCC3(CC2)NCCc2[nH]cnc23)cc(OC)c1OC |  | inactive |
| O=C(O)c1ccc(-n2nc(C(F)(F)F)c3c2CCCC3)cc1 | inconclusive: 0.58 µM [rising, partial curve] | inconclusive: -10.9% |
| COc1cccc(-c2nc3ccc(O)cc3c(=O)o2)c1 |  | inconclusive: 258% |
| O=C(Nc1ccccc1)c1cccc(S(=O)(=O)Oc2ccc([N+](=O)[O-])cc2)c1 |  | inconclusive: -13.9% |
| CCC1=Nc2cc(C(=O)NCc3ccccc3OC)ccc2Sc2ccc(Cl)cc21 |  | inconclusive: 7.04% |
| N#CCC(=O)Nc1ccc(C(=O)OCC(=O)NCCCc2ccccc2)cc1 | inconclusive: 31.6 µM [falling, single point] |  |
| Cc1c(C#N)c(N)nc(Cl)c1C#N |  | inconclusive: 13.6% |
| Cc1nc2ccc(NC(=O)c3cccs3)cc2c(=O)n1Cc1ccc(Cl)cc1 | inconclusive: 7.31 µM [falling, partial curve] |  |
| Cc1cc(C)c(S(=O)(=O)N2CCCc3ccccc32)c(C)c1 |  | inactive |
| Nn1c(SCc2cccc3ccccc23)nnc1-c1ccco1 |  | inactive |
| Cc1n[nH]c(=S)n1/N=C/c1ccc(Br)o1 |  | inconclusive: -5.6% |

| SMILES | Potency | activity change, negative = inhibition |
| --- | --- | --- |
| COC(=O)C1Sc2[nH]c(=O)sc2C(c2ccc(Cl)cc2)C1C(=O)OC (stereo unspecified) |  | inconclusive: 0.765% |
| CCOC(=O)CSc1nc(=O)n2cc(C)ccc2n1 |  | inactive |
| COCCCNC(=O)CN(c1cc(OC)ccc1OC)S(=O)(=O)c1ccccc1 |  | inactive |
| CN(C)S(=O)(=O)c1ccc(NC(=O)c2cc(-c3cccs3)nc3ccccc23)cc1 |  | inconclusive: 11.4% |
| COc1ccc(NC(=O)CCC(=O)Nc2cc(OC)c(NC(=O)c3cccs3)cc2OC)cc1 |  | inactive |
| O=C(CN1C(=O)c2ccccc2S1(=O)=O)N1CCc2ccccc21 |  | inconclusive: -1.15% |
| COc1cccc(/C=C/C(=O)OCC(=O)Nc2cccc(S(=O)(=O)N3CCCCC3)c2)c1OC |  | inactive |
| Cn1cc(CN2CCC(N3CCNC(=O)CC3)CC2)c(-c2ccccc2F)n1 |  | inactive |
| CCN(CC)CCn1c(/N=C/c2cc(Br)ccc2O)nc2ccccc21 | inconclusive: 20.6 µM [falling, partial curve] |  |
| CC(C)c1cc(-c2n[nH]c(=S)n2Cc2ccccc2)cs1 | inconclusive: 12.6 µM [rising, partial curve, poor fit] |  |
| S=c1[nH]nc(-c2cccc(Cl)c2)n1Cc1ccccc1 |  | inactive |
| O=C(c1cc(COc2ccc(F)cc2Cl)on1)N1CCCCCC1 |  | inconclusive: 1.71% |
| O=C(Nc1ccccc1)N(CCCN1CCOCC1)Cc1cc2cc3c(cc2[nH]c1=O)OCCO3 | inconclusive: 1.16 µM [falling, partial curve, poor fit] |  |
| Fc1ccc(N2CCN(c3cnc4ccccc4n3)CC2)cc1 |  | inconclusive: -1.4% |
| COC(=O)C1=C(N)OC2=C(C(=O)CCC2)C1c1cccs1 (stereo unspecified) |  | inconclusive: 5.71% |
| CCCCNC(=O)CC(C(=O)N1CCc2ccccc21)n1ccnc1 (stereo unspecified) | inconclusive: 14.6 µM [rising, partial curve, poor fit] |  |
| O=C(N/N=C/c1ccc2c(c1)OCO2)c1ccccn1 |  | inconclusive: 420% |
| O=C(NNC(=O)c1cc(-c2ccccc2)nn1-c1ccccc1)c1ccccc1 |  | inconclusive: 13.4% |
| Cc1ccccc1OCCC(=O)OCC(=O)NNC(=O)c1cccs1 |  | inactive |

A few values from the list.
Cn1cc(CN2CCC(N3CCNC(=O)CC3)CC2)c(-c2ccccc2F)n1 | activity change, negative = inhibition: inactive
COC(=O)C1Sc2[nH]c(=O)sc2C(c2ccc(Cl)cc2)C1C(=O)OC (stereo unspecified) | activity change, negative = inhibition: inconclusive: 0.765%
CCCCN1C(=O)/C(=C2/Sc3ccccc3N2C)S/C1=N\c1ncn[nH]1 | Potency: inconclusive: 0.501 µM [falling, partial curve, poor fit]
COc1cc(NC(=O)Cn2ncc(Cl)c(Cl)c2=O)c(C)cc1[N+](=O)[O-] | activity change, negative = inhibition: inconclusive: 15.1%
